According to the supplement of paper PMC4604168 (melanoma cell lines):
The other results are listed elsewhere or left out. Many values rest on one well or one pass, so single values are uncertain.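 The apoptosis fraction was the count of cleaved-PARP antibody-stained nuclei relative to all DNA-stained nuclei, imaged in 1,536-well plates. Screening doses were set so most cells survived, and baseline and induced cleaved-PARP levels vary greatly across cell lines.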

What follows are compounds tested on C32 (assay: cleaved PARP positive nuclei fraction relative to DMSO control; melanoma cells; higher = more apoptosis). Conditions: library dose: low library concentration; 72 h.

SMILES | cleaved PARP positive nuclei fraction
Nc1ccn([C@@H]2O[C@H](CO)[C@@H](O)C2(F)F)c(=O)n1 [gemcitabine] + CC1(C)NC(=O)N(c2ccc([N+](=O)[O-])c(C(F)(F)F)c2)C1=O [nilutamide] (first compound 0.0004 µM, partner dose 1 µM) | 102%
CC(C)C[C@H](NC(=O)[C@H](Cc1ccccc1)NC(=O)c1cnccn1)B(O)O [Bortezomib] + Cc1ccc(NC(=O)c2cccc(N(C)C)c2)cc1NC(=O)c1ccc(O)cc1 [ZM336372] (first compound 0.001 µM, partner dose 2 µM) | 224%
CCCS(=O)(=O)Nc1ccc(F)c(C(=O)c2c[nH]c3ncc(Cl)cc23)c1F + CN(NC(=O)CC(=O)NN(C)C(=S)c1ccccc1)C(=S)c1ccccc1 [STA4783] (first compound 0.08 µM, partner dose 0.006 µM) | 113%
O=C(O)[C@@H]1[O][Sb](=[O])([O][Sb]2(=[O])[O][C@H]([C@H](O)CO)[C@H](O)[C@H](C(=O)O)[O]2)[O][C@H]([C@H](O)CO)[C@@H]1O (stereo partly drawn) [stibogluconate] + C[C@@H]1CCN(C(=O)CC#N)C[C@@H]1N(C)c1ncnc2[nH]ccc12 [CP690550] (first compound 2 µM, partner dose 1 µM) | 39.7%
C=C(c1ccc(C(=O)O)cc1)c1cc2c(cc1C)C(C)(C)CCC2(C)C [Bexarotene] + Cc1ccc(NC(=O)c2cccc(N(C)C)c2)cc1NC(=O)c1ccc(O)cc1 [ZM336372] (first compound 2 µM, partner dose 2 µM) | 171%
Cc1cc(Nc2cc(N3CCN(C)CC3)nc(/C=C/c3ccccc3)n2)n[nH]1 + CO[C@@H]1[C@H](N(C)C(=O)c2ccccc2)C[C@H]2O[C@]1(C)n1c3ccccc3c3c4c(c5c6ccccc6n2c5c31)C(=O)NC4 [Midostaurin] (first compound 0.04 µM, partner dose 0.08 µM) | 315%

A second format for some results above:
SMILES	cleaved PARP positive nuclei fraction
CCCS(=O)(=O)Nc1ccc(F)c(C(=O)c2c[nH]c3ncc(Cl)cc23)c1F + CN(NC(=O)CC(=O)NN(C)C(=S)c1ccccc1)C(=S)c1ccccc1 [STA4783] (first compound 0.08 µM, partner dose 0.006 µM)	113%
O=C(O)[C@@H]1[O][Sb](=[O])([O][Sb]2(=[O])[O][C@H]([C@H](O)CO)[C@H](O)[C@H](C(=O)O)[O]2)[O][C@H]([C@H](O)CO)[C@@H]1O (stereo partly drawn) [stibogluconate] + C[C@@H]1CCN(C(=O)CC#N)C[C@@H]1N(C)c1ncnc2[nH]ccc12 [CP690550] (first compound 2 µM, partner dose 1 µM)	39.7%
C=C(c1ccc(C(=O)O)cc1)c1cc2c(cc1C)C(C)(C)CCC2(C)C [Bexarotene] + Cc1ccc(NC(=O)c2cccc(N(C)C)c2)cc1NC(=O)c1ccc(O)cc1 [ZM336372] (first compound 2 µM, partner dose 2 µM)	171%

What follows are compounds tested on CBRC008 (line from a melanoma biopsy) in the same assay as above. Conditions: library dose: low library concentration; 72 h.

SMILES | cleaved PARP positive nuclei fraction
Nc1ncn([C@H]2C[C@H](O)[C@@H](CO)O2)c(=O)n1 [decitabine] + Cc1cc(N2CCOCC2)cc2[nH]c(-c3c(NC[C@@H](O)c4cccc(Cl)c4)cc[nH]c3=O)nc12 [BMS536924] (first compound 0.1 µM, partner dose 0.2 µM) | 335%
Cn1c(=O)n(-c2ccc(C(C)(C)C#N)cc2)c2c3cc(-c4cnc5ccccc5c4)ccc3ncc21 + NCC(=O)Nc1ccc(-n2nc(C(F)(F)F)cc2-c2ccc3c(ccc4ccccc43)c2)cc1 [OSU03012] (first compound 0.004 µM, partner dose 1 µM) | 37.2%
CS(=O)(=O)CCNCc1ccc(-c2ccc3ncnc(Nc4ccc(OCc5cccc(F)c5)c(Cl)c4)c3c2)o1 [lapatinib] + O=C(Nc1cccc(Cl)c1)Nc1ncc(CCNc2ncnc3ccsc23)s1 [SNS314] (first compound 0.8 µM, partner dose 0.0008 µM) | 71%
CN1CCN(c2ccc3nc(-c4c(N)c5c(F)cccc5[nH]c4=O)[nH]c3c2)CC1 [Dovitinib] + CN(C)S(=O)(=O)c1ccc2c(c1)/C(=C/c1cc3c([nH]1)CCCC3)C(=O)N2 [SU6656] (first compound 0.1 µM, partner dose 0.4 µM) | 66.8%
C[C@@H](Oc1cc(-c2cnn(C3CCNCC3)c2)cnc1N)c1c(Cl)ccc(F)c1Cl [Crizotinib] + Cn1cncc1[C@@](N)(c1ccc(Cl)cc1)c1ccc2c(c1)c(-c1cccc(Cl)c1)cc(=O)n2C [tipifarnib] (first compound 0.2 µM, partner dose 0.01 µM) | 117%
CO[C@H]1C[C@@H]2CC[C@@H](C)[C@@](O)(O2)C(=O)C(=O)N2CCCC[C@H]2C(=O)O[C@H]([C@H](C)C[C@@H]2CC[C@@H](OCCO)[C@H](OC)C2)CC(=O)[C@H](C)/C=C(\C)[C@@H](O)[C@@H](OC)C(=O)[C@H](C)C[C@H](C)/C=C/C=C/C=C/1C [everolimus] + O=C(Nc1cccc(Cl)c1)Nc1ncc(CCNc2ncnc3ccsc23)s1 [SNS314] (first compound 0.02 µM, partner dose 0.0008 µM) | 199%
O=C(O)c1ccc2c(c1)nc(Nc1cccc(Cl)c1)c1ccncc12 + NC(=O)Nc1cc(-c2cccc(F)c2)sc1C(=O)N[C@H]1CCCNC1 [AZD7762] (first compound 0.4 µM, partner dose 0.02 µM) | 46.6%
